# Earlier results as cited in patent EP0672415A1, “Organopathy preventing, curing or ameliorating agent” (priority 1994, dated 1995).
# For at least one compound, name, drawing or mass did not settle the structure.
# Tested on: rat liver transplantation
# Details: added to the donor preserving fluid; untreated group about 1 - 2 days; cited from earlier work
structure (smiles),measurement,value
COC(=O)C1=C(C)NC(C)=C(C(=O)OCC(C)C)C1c1ccccc1[N+](=O)[O-] (stereo not shown) [nisoldipine],postoperative survival rate,10 to 20 days
